Results taken from doi:10.1101/2022.02.08.479400.
These are yes or no findings as the source states them, for the method shown. Binding seen in cells or lysates may run through a third protein. Some results given as binding are weak or reduced against the parent protein; the word gives no strength. Where a sequence is shown, tags or fusion partners need not be part of it.

Molecular target: T1, nEYFP-fused PDR6 (Arabidopsis thaliana) (UniProt Q7PC87)
T1 sequence: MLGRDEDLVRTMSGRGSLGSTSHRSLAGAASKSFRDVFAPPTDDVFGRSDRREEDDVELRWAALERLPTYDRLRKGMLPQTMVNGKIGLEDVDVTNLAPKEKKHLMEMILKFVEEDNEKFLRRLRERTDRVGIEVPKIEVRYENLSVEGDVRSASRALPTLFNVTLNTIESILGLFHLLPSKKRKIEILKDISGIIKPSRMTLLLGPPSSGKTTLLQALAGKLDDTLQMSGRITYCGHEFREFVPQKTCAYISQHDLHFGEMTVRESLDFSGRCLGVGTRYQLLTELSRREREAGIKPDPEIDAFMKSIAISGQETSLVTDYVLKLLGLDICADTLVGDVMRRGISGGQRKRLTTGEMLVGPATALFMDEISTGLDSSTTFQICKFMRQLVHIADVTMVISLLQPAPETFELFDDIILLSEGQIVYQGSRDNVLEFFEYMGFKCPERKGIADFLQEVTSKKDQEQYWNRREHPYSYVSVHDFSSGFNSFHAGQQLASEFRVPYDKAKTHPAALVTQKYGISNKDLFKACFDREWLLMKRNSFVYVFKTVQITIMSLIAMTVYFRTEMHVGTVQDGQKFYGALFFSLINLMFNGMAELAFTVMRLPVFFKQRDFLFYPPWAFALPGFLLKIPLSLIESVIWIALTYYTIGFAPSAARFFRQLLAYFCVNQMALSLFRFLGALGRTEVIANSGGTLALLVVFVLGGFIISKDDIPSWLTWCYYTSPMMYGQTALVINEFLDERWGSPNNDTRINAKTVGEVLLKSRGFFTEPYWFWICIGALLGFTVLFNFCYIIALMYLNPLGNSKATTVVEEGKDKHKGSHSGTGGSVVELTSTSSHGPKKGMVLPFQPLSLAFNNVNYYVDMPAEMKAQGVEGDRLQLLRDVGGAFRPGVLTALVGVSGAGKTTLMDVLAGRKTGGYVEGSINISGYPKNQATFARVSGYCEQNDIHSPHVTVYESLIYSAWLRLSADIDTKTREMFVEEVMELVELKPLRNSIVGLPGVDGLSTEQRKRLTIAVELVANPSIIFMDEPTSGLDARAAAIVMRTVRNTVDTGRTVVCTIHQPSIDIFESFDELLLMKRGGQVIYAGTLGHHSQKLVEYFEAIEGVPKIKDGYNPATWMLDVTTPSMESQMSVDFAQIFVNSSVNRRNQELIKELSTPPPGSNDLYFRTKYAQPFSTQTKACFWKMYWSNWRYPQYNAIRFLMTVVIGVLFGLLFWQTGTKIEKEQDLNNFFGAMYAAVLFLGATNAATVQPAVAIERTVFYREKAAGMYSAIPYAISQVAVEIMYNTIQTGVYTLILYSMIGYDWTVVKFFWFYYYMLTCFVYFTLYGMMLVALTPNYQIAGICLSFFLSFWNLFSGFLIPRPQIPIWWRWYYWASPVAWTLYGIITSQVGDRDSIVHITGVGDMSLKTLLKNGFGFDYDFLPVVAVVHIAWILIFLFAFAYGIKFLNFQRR
Test: split reporter

binding: binds
B1: cEYFP-fused OXI1 (enzyme, UniProt Q9LSF1 1-421)
chain: MLEGDEKQSRALDFNRLEVLSLLGRGAKGVVFLVRDDDAKLLALKVILKEAIEKKKKGRESEDDEYKRVSFEQGVLSRFDHPLFPSLHGVLATDKVIGYAIDYCPGQNLNSLRKMQSESMFSDEIIRFYAAELVLALDYLHNQGIVYRDLKPDNVMIQENGHLMLIDFDLSTNLAPRTPQPSPSLSKPSPTMKRKKRLFRFTSFCNSGISPQESISVHSSSTLAVSDSSGEKSNSFVGTEEYVAPEVISGDGHDFAVDWWSLGVVLYEMLYGATPFRGSNRKETFYRILSKPPNLTGETTSLRDLIRRLLEKDPSRRINVEEIKGHDFFRGVDWEKVILVSRPPYIPAPDDGGDKGTDVNTKMDVENIVQEIFAARQEREKQSGDNNKNANMKIKDNTSGEWVKGLNNNHDLESDNNFLVF
